In paper PMC8783677:
Results are given in words; binding and its absence hold for the method and conditions named. Binding seen in cells or lysates may run through a third protein. A yes stands for co-enrichment or nearness to the bait. Other partners may have been found. Where a sequence is shown, tags or fusion partners need not be part of it. Each block holds one molecule with its values, some of them ahead of it.

Amino acid sequences for entries named in this document (tags omitted).
UniProt Q06187: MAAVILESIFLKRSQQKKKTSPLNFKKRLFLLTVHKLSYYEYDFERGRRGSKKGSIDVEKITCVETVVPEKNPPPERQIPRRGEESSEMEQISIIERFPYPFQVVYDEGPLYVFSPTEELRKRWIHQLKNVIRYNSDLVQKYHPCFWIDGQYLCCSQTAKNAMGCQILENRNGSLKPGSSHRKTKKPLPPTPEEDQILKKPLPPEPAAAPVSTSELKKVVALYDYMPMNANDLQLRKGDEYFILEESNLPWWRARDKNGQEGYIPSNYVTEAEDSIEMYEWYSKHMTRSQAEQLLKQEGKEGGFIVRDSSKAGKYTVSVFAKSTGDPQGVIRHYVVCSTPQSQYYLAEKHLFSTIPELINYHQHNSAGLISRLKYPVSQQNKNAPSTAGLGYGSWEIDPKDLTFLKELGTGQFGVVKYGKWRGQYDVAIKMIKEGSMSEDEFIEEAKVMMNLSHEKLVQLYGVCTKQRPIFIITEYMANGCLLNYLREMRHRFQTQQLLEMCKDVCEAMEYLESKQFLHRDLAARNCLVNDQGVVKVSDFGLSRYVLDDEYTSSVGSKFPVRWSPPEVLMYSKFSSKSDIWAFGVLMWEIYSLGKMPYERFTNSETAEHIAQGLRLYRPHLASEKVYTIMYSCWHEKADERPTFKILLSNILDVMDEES
UniProt O60828: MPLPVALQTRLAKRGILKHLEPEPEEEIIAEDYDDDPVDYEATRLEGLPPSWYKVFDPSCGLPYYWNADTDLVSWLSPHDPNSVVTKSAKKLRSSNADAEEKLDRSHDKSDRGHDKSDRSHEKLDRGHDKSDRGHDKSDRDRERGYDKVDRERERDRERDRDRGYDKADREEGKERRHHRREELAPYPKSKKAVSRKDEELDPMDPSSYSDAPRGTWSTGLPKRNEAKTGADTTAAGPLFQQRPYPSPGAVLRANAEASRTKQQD

Molecular target: T1, FLAG-CPVL (carboxypeptidase, vitellogenic-like) (human) (UniProt Q9H3G5)
T1 sequence: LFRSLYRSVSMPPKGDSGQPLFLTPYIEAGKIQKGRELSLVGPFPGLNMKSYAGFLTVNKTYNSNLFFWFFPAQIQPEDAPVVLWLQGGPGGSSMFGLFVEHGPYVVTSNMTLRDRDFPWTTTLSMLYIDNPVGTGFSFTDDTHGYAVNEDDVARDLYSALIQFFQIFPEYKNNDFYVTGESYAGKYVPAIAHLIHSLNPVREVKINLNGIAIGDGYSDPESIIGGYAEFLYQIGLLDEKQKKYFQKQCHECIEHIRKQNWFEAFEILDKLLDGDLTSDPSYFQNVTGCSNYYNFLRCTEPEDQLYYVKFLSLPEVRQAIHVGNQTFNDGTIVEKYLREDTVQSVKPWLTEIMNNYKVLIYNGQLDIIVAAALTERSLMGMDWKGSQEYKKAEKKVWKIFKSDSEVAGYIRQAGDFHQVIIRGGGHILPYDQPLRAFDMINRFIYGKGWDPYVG
Experiment: affinity purification with mass spectrometry; lysate of about 5 x 10^8 U251 cells stably expressing FLAG-CPVL on an anti-FLAG M2 column; washed with BC500 (50 mM Tris, 2 mM EDTA, 500 mM KCl, 10% glycerol); eluted with FLAG peptide; SDS-PAGE, silver stain, LC-MS/MS

binding: binds
Molecule: Bruton's tyrosine kinase (BTK) (from UniProt Q06187 1-659) (enzyme)

binding: binds
Molecule: PQBP1 (from UniProt O60828 1-265)

binding: binds
B1: MICA (protein, UniProt Q29983 24-383)
chain: EPHSLRYNLTVLSWDGSVQSGFLTEVHLDGQPFLRCDRQKCRAKPQGQWAEDVLGNKTWDRETRDLTGNGKDLRMTLAHIKDQKEGLHSLQEIRVCEIHEDNSTRSSQHFYYDGELFLSQNLETKEWTMPQSSRAQTLAMNVRNFLKEDAMKTKTHYHAMHADCLQELRRYLKSGVVLRRTVPPMVNVTRSEASEGNITVTCRASGFYPWNITLSWRQDGVSLSHDTQQWGDVLPDGNGTYQTWVATRICQGEEQRFTCYMEHSGNHSTHPVPSGKVLVLQSHWQTFHVSAVAAAAIFVIIIFYVRCCKKKTSAAEGPELVSLQVLDQHPVGTSDHRDATQLGFQPLMSDLGSTGSTEGA
